Common to all, as to assay: DAPPL (digital affinity profiling via proximity ligation, sequencing)
What all share (details): 10 mM Tris-HCl pH 7.5, 50 mM NaCl, 1 mM DTT, 4% glycerol, room temperature, 30 min; GST-TFs on glutathione beads, 16-mer random dsDNA library, 0.1% …; high values mean tight binding; double strand, one strand shown; scale: fold enrichment (6-mer frequency, TF over GST control)

By UniProt entry, the sequences of proteins in these tests, tags left out. Where a name states a change or a piece, a line headed by the entry shows the natural chain unless it says otherwise.
UniProt P41161: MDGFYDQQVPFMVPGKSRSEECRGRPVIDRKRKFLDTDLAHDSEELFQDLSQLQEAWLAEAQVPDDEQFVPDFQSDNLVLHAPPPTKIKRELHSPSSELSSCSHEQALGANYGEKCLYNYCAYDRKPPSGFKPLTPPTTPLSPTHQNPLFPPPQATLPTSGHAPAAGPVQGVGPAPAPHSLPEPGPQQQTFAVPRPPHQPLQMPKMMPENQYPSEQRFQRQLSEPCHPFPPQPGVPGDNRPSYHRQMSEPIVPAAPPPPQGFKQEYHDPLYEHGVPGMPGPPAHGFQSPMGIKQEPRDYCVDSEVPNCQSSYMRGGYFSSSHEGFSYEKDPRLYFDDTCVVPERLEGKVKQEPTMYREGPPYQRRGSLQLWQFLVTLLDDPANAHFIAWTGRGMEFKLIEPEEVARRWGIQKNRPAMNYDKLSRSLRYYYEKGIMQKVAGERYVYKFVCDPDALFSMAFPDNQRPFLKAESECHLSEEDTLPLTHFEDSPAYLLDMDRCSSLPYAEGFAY
UniProt Q01892: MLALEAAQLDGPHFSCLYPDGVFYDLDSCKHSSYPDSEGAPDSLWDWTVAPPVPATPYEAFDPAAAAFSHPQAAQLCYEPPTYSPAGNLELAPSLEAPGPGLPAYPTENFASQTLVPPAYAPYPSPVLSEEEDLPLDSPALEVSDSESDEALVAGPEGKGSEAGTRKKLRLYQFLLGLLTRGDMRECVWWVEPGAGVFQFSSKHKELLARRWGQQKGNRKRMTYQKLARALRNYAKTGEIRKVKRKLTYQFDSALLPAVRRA
UniProt Q99607: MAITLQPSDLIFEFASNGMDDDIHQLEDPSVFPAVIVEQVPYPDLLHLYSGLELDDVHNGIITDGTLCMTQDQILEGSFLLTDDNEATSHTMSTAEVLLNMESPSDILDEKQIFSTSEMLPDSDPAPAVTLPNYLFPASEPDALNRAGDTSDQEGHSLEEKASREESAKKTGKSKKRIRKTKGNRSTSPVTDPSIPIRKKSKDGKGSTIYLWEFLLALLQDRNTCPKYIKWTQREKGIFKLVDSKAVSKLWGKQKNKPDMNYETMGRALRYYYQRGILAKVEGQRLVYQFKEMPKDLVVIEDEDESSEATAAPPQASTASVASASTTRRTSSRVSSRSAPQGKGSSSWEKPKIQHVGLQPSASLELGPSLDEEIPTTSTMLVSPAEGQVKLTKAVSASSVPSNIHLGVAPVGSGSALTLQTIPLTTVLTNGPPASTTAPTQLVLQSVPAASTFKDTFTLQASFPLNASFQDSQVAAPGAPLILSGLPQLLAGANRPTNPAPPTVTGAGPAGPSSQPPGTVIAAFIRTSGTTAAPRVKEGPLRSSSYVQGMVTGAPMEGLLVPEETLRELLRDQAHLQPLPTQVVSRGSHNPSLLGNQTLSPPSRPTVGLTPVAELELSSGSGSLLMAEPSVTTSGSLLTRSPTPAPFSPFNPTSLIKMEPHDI

Test [1] deals with T1, EHF (UniProt Q9NZC4).
T1 sequence: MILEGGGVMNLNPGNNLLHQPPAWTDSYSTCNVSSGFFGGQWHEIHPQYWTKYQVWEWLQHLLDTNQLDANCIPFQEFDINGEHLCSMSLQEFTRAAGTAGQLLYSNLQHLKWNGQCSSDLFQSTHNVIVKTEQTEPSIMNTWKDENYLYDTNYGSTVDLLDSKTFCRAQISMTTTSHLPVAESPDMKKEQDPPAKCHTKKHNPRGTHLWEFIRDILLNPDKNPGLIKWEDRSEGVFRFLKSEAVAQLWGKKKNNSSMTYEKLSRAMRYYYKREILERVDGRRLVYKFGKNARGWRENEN

The target of test [2] is ETV5 (UniProt P41161).
The target in test [3] is T2, ETV3L (UniProt Q6ZN32).
T2 sequence: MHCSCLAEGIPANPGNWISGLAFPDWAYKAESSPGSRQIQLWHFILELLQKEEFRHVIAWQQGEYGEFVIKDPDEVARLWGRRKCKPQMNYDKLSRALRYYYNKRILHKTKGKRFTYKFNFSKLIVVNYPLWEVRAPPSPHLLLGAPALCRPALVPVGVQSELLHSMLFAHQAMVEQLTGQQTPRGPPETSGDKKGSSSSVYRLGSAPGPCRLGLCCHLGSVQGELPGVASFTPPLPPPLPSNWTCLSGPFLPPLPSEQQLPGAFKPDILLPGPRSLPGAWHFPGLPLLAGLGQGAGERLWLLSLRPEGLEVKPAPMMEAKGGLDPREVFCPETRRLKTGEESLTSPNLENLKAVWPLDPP

Test [4] deals with SPIB (UniProt Q01892).
Test [5] has as its target T3, FLI1 (UniProt Q01543).
T3 sequence: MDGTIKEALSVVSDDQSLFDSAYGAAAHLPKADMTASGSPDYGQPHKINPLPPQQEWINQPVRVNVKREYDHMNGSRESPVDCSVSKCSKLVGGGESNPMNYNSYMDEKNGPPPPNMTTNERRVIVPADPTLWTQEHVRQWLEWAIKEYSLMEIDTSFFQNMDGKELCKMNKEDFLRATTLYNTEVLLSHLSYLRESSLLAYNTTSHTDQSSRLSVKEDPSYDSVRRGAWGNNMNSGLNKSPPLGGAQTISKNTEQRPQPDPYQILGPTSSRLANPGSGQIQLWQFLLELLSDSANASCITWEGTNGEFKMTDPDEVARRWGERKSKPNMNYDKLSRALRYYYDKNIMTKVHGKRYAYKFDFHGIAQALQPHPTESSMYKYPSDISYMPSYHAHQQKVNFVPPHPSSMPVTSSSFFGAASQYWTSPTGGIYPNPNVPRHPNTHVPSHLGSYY

The target in test [6] is ELF4 (UniProt Q99607).

Drawing on article PMC7862700, this text covers binding signal for 82 sequences.

This is a selection; strong and weak results do not stand in their true shares. For some assays here: At the low end of the ranking the order means little.

For the sequence TGTCAA, the binding signal in test [1] is 0.956; in test [2] it was 0.982; in test [3], 1.07.

As for TAAGTA, the binding signal in test [1] came to 1.19; in test [4], 1.22; in test [2], 1.18; in test [3], 1.22.

As for TCCATT, the binding signal is 1.27 in test [1], 1.36 in test [2] and 1.22 in test [3].

Turning to TCATCT, the binding signal in test [1] turned out to be 1.13; in test [2], 1.19; in test [3], 1.22.

Turning to CAATAC, the figures for the binding signal in test [1], in test [2] and in test [3] were 1.2, 1.26 and 1.3, respectively.

In the case of ACTTGA, the binding signal was determined as 0.964 in test [1], 0.961 in test [4], 0.95 in test [2] and 0.99 in test [3].

Turning to TAGGTC, the binding signal in test [1] stood at 0.974; in test [4], 1.01; in test [2], 1.06; in test [3] it was 1.02.

For CTTAGT, the binding signal was 1.19 in test [4], 1.3 in test [2] and 1.18 in test [3].

AAGCCC: the figures for the binding signal in test [1], in test [2] and in test [3] were 0.972, 1.04 and 1.07, respectively.

On to GAAAAA, for which the values for the binding signal in test [2] and in test [3] were 1.13 and 1.16, respectively.

On to CCCGAT, for which the binding signal in test [1] was found to be 1.22; in test [2] it was 1.2; in test [3] it was 1.14.

On to TCAATG, for which the binding signal in test [1] was 1.04; in test [4], 1.11; in test [2], 1.02; in test [3], 1.05.

With TGTATG, the binding signal in test [1] amounted to 1.2; in test [2] it was 1.28; in test [3], 1.23.

On to TGATGC, for which the results for the binding signal in test [1], in test [2] and in test [3] were 1.58, 1.49 and 1.61, respectively.

Consider CTTATA, for which the figures for the binding signal in test [4], in test [2] and in test [3] were 1.39, 1.29 and 1.35, respectively.

In the case of GCTGCA, the binding signal in test [1] was found to be 1.08; in test [2], 0.941; in test [3], 1.11.

CTTCAC: the binding signal turned out to be 1.41 in test [1], 1.37 in test [2] and 1.44 in test [3].

AAGGAT: the binding signal in test [1] came to 1.25; in test [2], 1.17; in test [3] it was 1.21.

Turning to AACCCG, the values for the binding signal in test [1], in test [2] and in test [3] were 1.54, 1.51 and 1.34, respectively.

Consider TCAGAT, for which the binding signal in test [1] was 0.965; in test [4], 1.02; in test [2] it was 0.952; in test [3], 1.

In the case of GGTTCA, the binding signal was found to be 0.974 in test [1], 1.04 in test [4], 1.03 in test [2] and 0.954 in test [3].

Take GAAGTA: the binding signal amounted to 2.13 in test [1], 1.95 in test [4], 2.16 in test [2] and 1.79 in test [3].

Take CGGATC: the binding signal in test [1] is 1.02; in test [2], 1.03; in test [3], 0.979.

CCTCGG: the binding signal in test [1] was 1.33; in test [2] it was 1.2; in test [3], 1.23.

Regarding TAATCG, the binding signal stood at 1.07 in test [1], 1.07 in test [2] and 1.09 in test [3].

In the case of CGCTAT, the binding signal in test [1] is 1.06; in test [4], 1.12; in test [2], 1.1; in test [3] it was 0.981.

With CCTAAT, the binding signal in test [4] amounted to 1.44; in test [2] it was 1.31; in test [3], 1.33.

In the case of TCCGCC, the binding signal is 1.73 in test [1], 1.69 in test [2] and 1.59 in test [3].

For AGTACT, the binding signal is 1.19 in test [2] and 1.12 in test [3].

As for GATGTA, the figures for the binding signal in test [4], in test [2] and in test [3] were 1.31, 1.37 and 1.39, respectively.

Take CGTATC: the binding signal was 1.2 in test [4], 1.13 in test [2] and 1.24 in test [3].

Regarding TGGATA, the binding signal in test [1] is 0.964; in test [2] it was 0.985; in test [3], 1.04.

Regarding TTTCCC, the binding signal in test [1] is 1.69; in test [2], 1.93; in test [3], 1.7.

Consider ACCTCC, for which the binding signal in test [1] amounted to 1.31; in test [4], 1.4; in test [2], 1.43; in test [3], 1.49.

Regarding CTACAG, the binding signal in test [1] is 1.05; in test [4], 0.999; in test [2], 1.07; in test [3], 1.13.

In the case of AAGCAT, the binding signal in test [4] stood at 1.14; in test [2] it was 1.06; in test [3], 1.09.

With TAAATG, the binding signal is 1.27 in test [1], 1.38 in test [2] and 1.39 in test [3].

Turning to GCTAAG, the binding signal in test [1] turned out to be 1.05; in test [4], 0.997; in test [2] it was 0.996; in test [3] it was 0.962.

As for AAGACT, the binding signal in test [1] was found to be 0.999; in test [2] it was 1.09; in test [3], 1.04.

Regarding GAAAAC, the values for the binding signal in test [1] and in test [2] were 1.09 and 1.13, respectively.

Turning to AGATCT, the binding signal was determined as 0.978 in test [4], 0.929 in test [2] and 0.988 in test [3].

With GCTCTT, the binding signal in test [1] turned out to be 1.29; in test [2], 1.53.

Turning to TTAGCT, the binding signal in test [1] and in test [2] was 1.2 each time.

Take TCTCCT: the binding signal was 1.43 in test [1] and 1.33 in test [2].

Regarding CCGGTT, the binding signal in test [1] was 1.97; in test [2] it was 2.15.

On to TATTAG, for which the binding signal was 0.893 in test [4], 1.04 in test [2] and 1.04 in test [3].

As to ATTGTT, the binding signal in test [1] amounted to 1.53; in test [2] it was 1.57.

On to TCTTCG, for which the binding signal was determined as 1.31 in test [1] and 1.51 in test [2].

With GTTAAT, the binding signal was found to be 1.16 in test [1] and 1.17 in test [2].

Regarding TATCCA, the binding signal in test [4] stood at 1.36; in test [2], 1.27; in test [3], 1.28.

TCCCCC: the binding signal in test [1] worked out at 1.52; in test [2], 1.48.

In the case of TGCTGG, the binding signal came out at 1.11 in test [1] and 1.04 in test [2].

In the case of CAACTT, the figures for the binding signal in test [1] and in test [2] were 1.54 and 1.58, respectively.

On to ATGCCA, for which the binding signal in test [1] and in test [2] was 1.05 each time.

For the sequence ATACGA, the binding signal in test [1] worked out at 1.12; in test [2] it was 1.17.

As for GTTAAA, the binding signal stood at 0.998 in test [1] and 1.02 in test [2].

Consider AATAGT, for which the binding signal in test [1] came out at 1.23; in test [2] it was 1.27.

CATGCG: the figures for the binding signal in test [4], in test [2] and in test [3] were 0.982, 0.987 and 1.01, respectively.

On to TGGGGT, for which the binding signal was 1.03 in test [1] and 1.13 in test [2].

With TTATCC, the binding signal in test [1] turned out to be 1.52; in test [2], 1.45.

As to TATGCC, the binding signal in test [4] stood at 1.26; in test [2], 1.18; in test [3], 1.12.

In the case of ATGGTC, the binding signal in test [1] is 1.47; in test [2], 1.57.

As for TCCAAA, the binding signal was 1.17 in test [4], 1.12 in test [2] and 1.18 in test [3].

For CGTCTG, the binding signal in test [4] came to 1.18; in test [2], 0.981; in test [3] it was 1.14.

ACTCCG: the binding signal came to 1.42 in test [1] and 1.44 in test [2].

For ATTCTC, the binding signal in test [1] came out at 1.27; in test [2], 1.31.

For ACCTAT, the binding signal in test [1] was found to be 1.21; in test [2] it was 1.14.

As for TGTCAC, the binding signal in test [1] is 1.22; in test [2] it was 1.15.

On to CATTGC, for which the binding signal in test [1] came to 1.15; in test [2], 0.995.

As for CTCGAG, the binding signal is 1.21 in test [1] and 1.26 in test [2].

CCGTCT: the binding signal in test [4] came out at 1.45; in test [2], 1.36; in test [3], 1.4.

In the case of AATATG, the binding signal in test [1] was determined as 1.09; in test [2], 1.2.

As to TGATTG, the binding signal in test [1] came to 0.99; in test [2] it was 0.992.

Take ATAAGA: the values for the binding signal in test [1] and in test [2] were 0.991 and 0.985, respectively.

With CCTCTG, the figures for the binding signal in test [1] and in test [2] were 1.67 and 1.56, respectively.

Take GCACTG: the binding signal came to 1.12 in test [1] and 1.05 in test [2].

On to CTGTAT, for which the binding signal in test [1] stood at 1.3; in test [2], 1.35.

With CACACC, the binding signal in test [4] worked out at 0.972; in test [2], 0.996; in test [3] it was 1.02.

As for TAGCCT, the binding signal in test [1] is 1.26; in test [2], 1.22.

As to CAATGC, the results for the binding signal in test [5] and in test [6] were 1.21 and 1.3, respectively.

Take ACAGCT: the binding signal in test [5] and in test [6] was 1.15 each time.

On to AGCTGC, for which the binding signal in test [5] and in test [6] was 1.16 in each case.
